# Laboratory results taken from PubChem BioAssay AID445 (National Center for Advancing Translational Sciences (NCATS), 2006).
# The other results are listed elsewhere or left out. Further columns of the screen follow, without active or inactive calls. The list favours compounds with an active or inconclusive main result. The note in brackets gives the kind of curve behind each potency; many fits are weak.
# Assay: IkB Signaling
# Conditions: ABC-DLBCL IkBa-CBG/CBR dual luciferase ratio (green luciferase fused to IkBa over red control in OCI-Ly3 lymphoma cells), 4 h
# Outline: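 In this assay, an IκBα–CBG68 fusion accumulates when IKK-driven degradation is blocked; native CBR normalizes for cell number. OCI-Ly3 cells were treated 4 h with compound and doxycycline, then green and red light read after Chroma-Glo addition.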
# [1] = measured here: control luc red channel unless noted
smiles,measurement,setting,value
COc1ccc(CN(C)c2ccc(-c3nc(-c4ccc(OC)c(OC)c4)no3)cc2[N+](=O)[O-])cc1,AC50,[1],"7.94 µM [falling, partial curve]"
CCOc1ccc2nc(Cl)c(C3CC(c4ccc(C)cc4)=NN3C(=O)CCC(=O)O)cc2c1 (stereo unspecified),AC50,[1],"3.98 µM [falling, full curve]"
Cc1c(Cl)cccc1NC(=O)CCS(=O)(=O)c1ccc2c(c1)CC(C)N2C(=O)C1CC1 (stereo unspecified),AC50,[1],"10 µM [falling, partial curve]"
CCC(C)S(=O)(=O)c1oc(-c2cccs2)nc1S(=O)(=O)c1ccccc1 (stereo unspecified),AC50,[1],"5.01 µM [falling, partial curve]"
COc1cccc(-c2nnc(SCC(=O)N(C)C3CCCCC3)o2)c1,AC50,[1],"20 µM [falling, partial curve, poor fit]"
CCOc1ccccc1CNCc1c(C(=O)O)c(C)n(Cc2ccc(C)cc2)c1C,AC50,[1],"25.1 µM [falling, single point]"
CN1CCc2nc3sc(C(=O)c4ccc(F)cc4)c(N)c3cc2C1,AC50,[1],"15.8 µM [falling, partial curve]"
CN1C(=O)c2cccc3c(S(=O)(=O)Nc4cccc(C(=O)O)c4)ccc1c23,AC50,[1],"1.58 µM [falling, full curve, poor fit]"
CCc1ccc(NC(=O)c2cc(S(=O)(=O)NC3CCCCCC3)ccc2F)cc1,AC50,[1],"20 µM [falling, partial curve]"
Cc1nn(-c2ccccc2)c2c1N(CCCC(=O)NC(C)c1ccccc1)C(=O)CS2 (stereo unspecified),AC50,[1],"6.31 µM [falling, partial curve]"
N#Cc1c(-n2cccc2/C=N/O)sc2c1CCCC2,AC50,[1],"12.6 µM [falling, partial curve]"
CCc1ccc(CNC(=O)CCn2nc(C)c3c(C)n(-c4ccccc4)nc3c2=O)cc1,AC50,[1],"15.8 µM [falling, single point]"
Cc1cccc(N2CCN(C(=O)c3ccc(Cl)c(S(=O)(=O)NCc4ccco4)c3)CC2)c1C,AC50,[1],"25.1 µM [falling, partial curve]"
Cc1ccc(-c2nn(CC(C)(C)C)c3ncnc(N)c23)cc1,AC50,[1],"2.51 µM [falling, full curve]"
O=C(Nc1ccccc1)c1cccc(N2CCCS2(=O)=O)c1,AC50,[1],"200 nM [rising, full curve, poor fit] [measured here: IkB-luc green channel]"
COc1cc(C(=O)OCC(=O)c2c[nH]c3ccccc23)ccc1OCC(=O)N1CCOCC1,AC50,[1],"10 µM [falling, partial curve]"
S=C(Nc1ccccn1)c1ccccn1,AC50,measured here: IkB-luc green channel,"31.6 µM [rising, partial curve]"
same,AC50,measured here: control luc red channel,"20 µM [falling, partial curve]"
Oc1ccc(N2CCN(c3ncnc4sc5c(c34)CCC5)CC2)cc1,AC50,[1],"12.6 µM [falling, partial curve]"
COc1ccc2c(c1)c(N1CCCC1=O)c(C(=O)Nc1ccc(OC)c(Cl)c1)n2C,AC50,[1],"31.6 µM [falling, single point]"
COc1ccc(Nc2ncc(C(=O)Nc3cccc(Cl)c3)c3ccccc23)cc1,AC50,[1],"5.01 µM [falling, full curve]"
Cc1cc(N2C3CCC2CC(O)(c2ccc(F)cc2)C3)nc(-c2ccccc2)n1 (stereo unspecified),AC50,[1],"15.8 µM [falling, partial curve]"
COc1ccc(Br)cc1CNC(=O)CCc1nc(-c2ccccc2F)no1,AC50,[1],"31.6 µM [falling, partial curve, poor fit]"
CC(C)CCNC(=O)c1cnc2sc(N3CCCCCC3)nn2c1=O,AC50,[1],"0.1 µM [rising, full curve]"
O=C(O)c1ccc2c3c(cccc13)C(=O)N(c1ccccc1O)C2=O,AC50,[1],"0.501 µM [falling, full curve]"
Cc1ccc(O)c(NC(=O)c2cc(-c3ccc(F)cc3)no2)c1,AC50,[1],"15.8 µM [falling, single point]"
COc1ccc(CNC(=O)c2ccc(Cn3c(=O)c4cccn4c4cccnc43)cc2)c(OC)c1,AC50,[1],"39.8 µM [falling, single point]"
COC(=O)CSc1cc(SCC(=O)OC)c(C#N)c(SCC(=O)OC)c1,AC50,[1],"31.6 µM [falling, single point]"
COc1ccc(-n2nc3c(N4CCC(C(=O)N5CCC(C)CC5)CC4)nnc(C)c3c2C)cc1,AC50,[1],"15.8 µM [falling, single point]"
CCOC(=O)c1snc(C(=O)NC2CCCCC2)c1N,AC50,[1],"20 µM [falling, partial curve]"
CCCC(=O)Nc1ccc(NC(=O)c2ccccc2Cl)nc1,AC50,[1],"15.8 µM [falling, partial curve]"
COc1cccc(-c2nc(CS(=O)(=O)CC(=O)N3CCN(c4ccccc4)CC3)c(C)o2)c1,AC50,[1],"39.8 µM [falling, single point]"
Cc1ccc(Cl)cc1N1CCN(C(=O)c2ccc3c(Cl)c4c(nc3c2)CCCC4)CC1,AC50,[1],"20 µM [falling, partial curve]"
COc1ccccc1CNC(=O)CCc1c(C)c2cc3c(C)coc3cc2oc1=O,AC50,[1],"20 µM [falling, partial curve]"
CCn1ccc2c(OCC(=O)Nc3ccc(OC)cc3OC)cccc2c1=O,AC50,[1],"39.8 µM [falling, single point]"
O=c1ccc(-c2ccccc2)nn1Cc1c(F)cccc1Cl,AC50,[1],"3.16 µM [falling, single point]"
CCn1cc(C(=O)NCCC(C)C)c(=O)c2cc(S(=O)(=O)N(C)C3CCCCC3)ccc21,AC50,[1],"31.6 µM [falling, single point]"
O=C1CC(O)(C(F)(F)F)Oc2c1ccc1ccccc21 (stereo unspecified),AC50,[1],"10 µM [falling, partial curve]"
O=C(Cn1c(-c2cccs2)cc2cc(F)ccc21)NCCc1ccc(Cl)cc1,AC50,[1],"6.31 µM [falling, partial curve]"
O=S(=O)(Nc1ccc(O)c(Sc2nc3ccccc3s2)c1)c1cc(Cl)ccc1Cl,AC50,[1],"31.6 µM [falling, partial curve]"
Cc1c(Cl)cccc1NC(=O)C(=O)NCCc1csc2nc(-c3ccccc3F)nn12,AC50,[1],"15.8 µM [falling, single point]"

# Pulled one by one from the list above (three):
smiles,measurement,setting,value
Oc1ccc(N2CCN(c3ncnc4sc5c(c34)CCC5)CC2)cc1,AC50,[1],"12.6 µM [falling, partial curve]"
COc1ccc(CN(C)c2ccc(-c3nc(-c4ccc(OC)c(OC)c4)no3)cc2[N+](=O)[O-])cc1,AC50,[1],"7.94 µM [falling, partial curve]"
COc1ccc(-n2nc3c(N4CCC(C(=O)N5CCC(C)CC5)CC4)nnc(C)c3c2C)cc1,AC50,[1],"15.8 µM [falling, single point]"
